Data as given in PubChem BioAssay AID743454 (Peter MacCallum Cancer Centre, 2014).
This is an unselected part of about 18,000 deposited reagents. Over the whole deposit, 450 (2.5%) are marked active. 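Single biological run; no consistent viability z cut-off exists, so the class columns, not z-scores, define the calls.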 Reagent sequences are not shown.

- Test: 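Genes whose loss kills vorinostat-resistant colon cancer cells under vorinostat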 (primary screen)
- Cells: human HCT116-VR colon cancer cells, selected for vorinostat resistance
- Knock-down reagent: siRNA pool against human genes, 40 nM siRNA pool
- Time to read-out: vorinostat for 24 h, read-out about 72 h after transfection
- Challenge: vorinostat at 2.5 µM final
- Measurement: 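Two measures, CellTiter-Fluor viability and luminescent caspase 3/7 activity, each as fold change against same-plate mock wells, mean of duplicates, then screen-wide robust z-score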
- Direction: viability robust z-score: higher = more viable cells than screen typical; caspase robust z-score: higher = more caspase 3/7 activity than screen typical
- Active means: 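Hits are knock-downs in viability class RV1/RV2 or caspase class CA1/CA2, excluding ones that killed cells in the no-drug cell-count arm; hits then retested with single siRNAs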

gene | PubChem SID | viability hit class | caspase hit class | viability robust z-score | caspase robust z-score | Call
IL1A | SID134312887 | no change | no change | 0.62 | 1.12 | inactive
AATF | SID152153956 | no change | no change | -1.22 | -0.8 | inactive
GCC1 | SID135623340 | no change | no change | 0.52 | -1.15 | inactive
NSUN6 | SID135623606 | no change | no change | 0.51 | -1.61 | inactive
MTNR1A | SID135621050 | no change | no change | 0.22 | -0.76 | inactive
KRTAP1-3 | SID135622536 | no change | no change | -0.26 | -0.38 | inactive
FAR1 | SID152149487 | no change | no change | -1.71 | -1.3 | inactive
CLEC16A | SID135624305 | no change | no change | 0.27 | 4.33 | inactive
SLC26A3 | SID134312538 | no change | no change | 1.09 | -0.84 | inactive
DPF2 | SID134310476 | no change | no change | -0.27 | -0.94 | inactive
GTF2A1L | SID134316585 | no change | no change | 0.56 | -0.71 | inactive
HLA-DQA2 | SID152155584 | no change | CA1 (caspase activation) | -1.12 | 6.63 | active
SLC24A1 | SID152148513 | no change | no change | 0.96 | -0.2 | inactive
LAPTM4A | SID134317664 | no change | no change | -1.79 | 1.54 | inactive
AKNA | SID152154629 | no change | no change | -0.56 | 4.17 | inactive
ENTHD1 | SID134322197 | no change | no change | 1.55 | -0.7 | inactive
INPP5A | SID152151539 | no change | no change | -0.96 | 1.9 | inactive
PF4 | SID152147954 | no change | no change | -1.42 | -0.62 | inactive
EME2 | SID135625235 | no change | no change | 0.05 | -1.04 | inactive
FSD1L | SID135622810 | no change | no change | -0.9 | -0.42 | inactive
TPRN | SID152149149 | no change | no change | -0.1 | 0.21 | inactive
IL23R | SID135621480 | no change | no change | 0.65 | 0 | inactive
PRLHR | SID135621015 | no change | no change | -0.1 | 0.84 | inactive
CCDC7 | SID135622737 | no change | no change | 0.26 | 0.33 | inactive
CCDC7 | SID152151559 | no change | no change | -0.18 | -1.17 | inactive
EPS8L3 | SID134317163 | no change | no change | 1.17 | -0.53 | inactive
CCDC47 | SID134315211 | no change | no change | -1.07 | 1.82 | inactive
A2ML1 | SID152149048 | no change | no change | 1.09 | -0.62 | inactive
TAPBPL | SID152148117 | no change | no change | -2 | -0.58 | inactive
PDHA1 | SID135621923 | no change | no change | -0.15 | 1.1 | inactive
SNRPB2 | SID134320883 | no change | no change | -0.02 | -0.57 | inactive
DDT | SID152151774 | no change | no change | 0.92 | -0.62 | inactive
INTS15 | SID134320348 | no change | no change | -1.45 | 0.34 | inactive
PDE6B | SID152149304 | no change | no change | -0.26 | -0.94 | inactive
WTAP | SID135623312 | no change | no change | -0.14 | -1.04 | inactive
OR1D2 | SID135621705 | no change | no change | -0.26 | 0.76 | inactive
SERPIND1 | SID135621797 | no change | no change | -0.81 | 2.09 | inactive
PLLP | SID134315312 | no change | no change | -0.02 | 2.21 | inactive
KCNG3 | SID134311648 | no change | no change | 1.68 | -0.72 | inactive
TMED5 | SID152156333 | no change | no change | -0.22 | -0.62 | inactive
USP36 | SID152147834 | no change | no change | -0.7 | 0.16 | inactive
SLC44A3 | SID135623052 | no change | no change | 0.18 | -0.03 | inactive
CPEB4 | SID135622785 | no change | no change | -0.78 | 0.28 | inactive
SMARCE1 | SID134321455 | no change | no change | -1.71 | 1.83 | inactive
SUN1 | SID152156120 | no change | no change | -0.59 | -1.38 | inactive
KCNRG | SID152154239 | no change | no change | -0.2 | 1.22 | inactive
ZNF543 | SID135624411 | no change | no change | 0.18 | -1.19 | inactive
MAPK7 | SID56478666 | no change | no change | 0.36 | -0.32 | inactive
ZFYVE21 | SID134319906 | no change | no change | 0.66 | 0.97 | inactive
HKDC1 | SID135621238 | no change | no change | 0.02 | -0.06 | inactive
NPFF | SID135622136 | no change | no change | -0.96 | 0.76 | inactive
ATF2 | SID134314569 | no change | no change | -0.54 | -0.64 | inactive
ACBD5 | SID152153829 | no change | no change | 1.26 | -0.2 | inactive
GSX2 | SID134319463 | no change | CA1 (caspase activation) | 0.06 | 5.61 | active
PCDHA12 | SID135622487 | no change | no change | -0.83 | -0.77 | inactive
GOLGB1 | SID152148853 | no change | no change | -0.02 | -0.02 | inactive
TSG101 | SID134309950 | no change | no change | -0.92 | 1.96 | inactive

5 consecutive records already listed, quoted:
gene | PubChem SID | viability hit class | caspase hit class | viability robust z-score | caspase robust z-score | Call
MAPK7 | SID56478666 | no change | no change | 0.36 | -0.32 | inactive
ZFYVE21 | SID134319906 | no change | no change | 0.66 | 0.97 | inactive
HKDC1 | SID135621238 | no change | no change | 0.02 | -0.06 | inactive
NPFF | SID135622136 | no change | no change | -0.96 | 0.76 | inactive
ATF2 | SID134314569 | no change | no change | -0.54 | -0.64 | inactive
